From patent publication US20220380444A1
No constants are given. Whether binding was seen depends on the method and setting. Some entries that bind do so weakly or less than the wild type.

The chains behind the UniProt entries cited, without tags or fusion partners. Where a name states a change or a piece, a line headed by the entry shows the natural chain unless it says otherwise.
UniProt P10643: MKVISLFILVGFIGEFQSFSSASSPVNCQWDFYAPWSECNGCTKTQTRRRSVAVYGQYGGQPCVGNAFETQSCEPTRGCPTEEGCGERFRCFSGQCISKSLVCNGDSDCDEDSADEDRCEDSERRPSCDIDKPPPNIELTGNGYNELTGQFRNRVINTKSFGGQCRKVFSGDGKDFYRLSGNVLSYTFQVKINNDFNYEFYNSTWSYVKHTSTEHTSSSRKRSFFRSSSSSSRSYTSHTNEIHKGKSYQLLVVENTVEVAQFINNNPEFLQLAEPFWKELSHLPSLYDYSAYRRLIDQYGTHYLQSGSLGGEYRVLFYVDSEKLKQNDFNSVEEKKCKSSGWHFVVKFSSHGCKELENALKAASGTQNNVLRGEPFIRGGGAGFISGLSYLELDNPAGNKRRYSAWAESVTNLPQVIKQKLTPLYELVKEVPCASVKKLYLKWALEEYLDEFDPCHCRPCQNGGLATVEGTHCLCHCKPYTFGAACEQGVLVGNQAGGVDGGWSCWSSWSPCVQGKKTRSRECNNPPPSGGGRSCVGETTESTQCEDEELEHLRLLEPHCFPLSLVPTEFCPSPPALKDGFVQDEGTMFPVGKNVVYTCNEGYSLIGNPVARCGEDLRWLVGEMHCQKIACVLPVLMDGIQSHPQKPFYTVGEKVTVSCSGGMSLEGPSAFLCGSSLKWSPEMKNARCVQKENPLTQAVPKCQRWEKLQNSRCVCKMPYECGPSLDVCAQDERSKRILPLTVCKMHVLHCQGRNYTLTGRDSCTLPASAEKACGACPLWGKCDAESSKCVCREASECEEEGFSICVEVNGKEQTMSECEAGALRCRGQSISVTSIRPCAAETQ

Experiments:
[1] = molecular target: human complement protein C7 (human) (UniProt P10643); experiment: SPR (Biacore)
[2] = molecular target: human complement protein C7 (human) (UniProt P10643); experiment: sandwich ELISA, goat anti-C7 coated as capture, human C7 titrated, labelled 17E7 as detection
[3] = molecular target: human complement protein C7 (human) (UniProt P10643); experiment: western blot of human serum, non-reduced (NR) and reduced (R)
[4] = molecular target: human complement protein C7 (human) (UniProt P10643); experiment: western blot, non-reducing conditions (no detection under reducing conditions)
[5] = molecular target: human complement protein C7 (human) (UniProt P10643); experiment: direct ELISA, C7 immobilised on the well, antibody titrated
[6] = molecular target: human complement protein C7 (human) (UniProt P10643); experiment: direct ELISA, human C7 on the well, antibody titrated
[7] = molecular target: human complement protein C7 (human) (UniProt P10643); experiment: western blot of human serum, reduced (R) and non-reduced (NR)
[8] = molecular target: human complement protein C7 (human) (UniProt P10643); experiment: sandwich ELISA, 17E7 coated as capture, human C7 titrated, Poly anti-C7 as detection
[9] = molecular target: human complement protein C7 (human) (UniProt P10643); experiment: direct ELISA, C7 coated on plate
[10] = molecular target: human complement protein C7 (human) (UniProt P10643); experiment: sandwich ELISA, goat anti-C7 coated as capture, human C7 titrated, labelled 2H2 as detection
[11] = molecular target: human complement protein C7 (human) (UniProt P10643); experiment: western blot, non-reduced human serum
[12] = molecular target: human complement protein C7 (human) (UniProt P10643); experiment: sandwich ELISA, 2H2 coated as capture, human C7 titrated, Poly anti-C7 as detection
[13] = molecular target: human complement protein C7 (human) (UniProt P10643); experiment: sandwich ELISA, 2H2 coated as capture, human C7 titrated, goat anti-C7 as detection
[14] = molecular target: human complement protein C7 (human) (UniProt P10643); experiment: western blot of serum, non-reducing conditions (no detection under reducing conditions)
[15] = molecular target: human complement protein C7 (human) (UniProt P10643); experiment: direct ELISA and sandwich ELISA
[16] = molecular target: human complement protein C7 (human) (UniProt P10643); experiment: western blot
[17] = molecular target: human complement protein C7 (human) (UniProt P10643); experiment: sandwich ELISA, 2H2 coated as capture, human C7 titrated, polyclonal anti-C7 as detection
[18] = molecular target: human complement protein C7 (human) (UniProt P10643); experiment: western blot, non-reduced, purified C7 and human serum
[19] = molecular target: human complement protein C7 (human) (UniProt P10643); experiment: sandwich ELISA, goat anti-C7 coated as capture, human C7 titrated, labelled 73D1 as detection
[20] = molecular target: human complement protein C7 (human) (UniProt P10643); experiment: sandwich ELISA, 73D1 coated as capture, human C7 titrated, Poly anti-C7 as detection

Measured: binding

B1: monoclonal anti-C7 antibody 17E7 (antibody, IgG2a, V domains shown)
VH: EVQLQQSGTVLARPGASVKMSCKTSGYSFTTYWMHWVKQRPGQGLEWIGAIYPGNSDTYYSQKFKDKAKLTAVTSASTAYMELSSLTNEDSAVYYCTRSGGYDVGGLDYWGQGTTLTVSS
VL: DIVMTQSPATLSVTPGDGVSLSCRASQSISDYLHWYQQKSHESPRLLIKFASQSISGIPSRFSGSGSGSDFTLSINSVEPEDVGMYYCQNGHSFPFTFGSGTKLELK
binds: [1] | [2] | [3] | [4] | [5] | [6] | [7] | [8] | [9]

B2: monoclonal anti-C7 antibody 2H2 (antibody, IgG2b, V domains shown)
VH: QVQLQQPGAELMKPGASVKLSCKASGYIFTSYWMHWVKQRPGRGLEWIGRIDPNSGGTNYNEKFKSKATLTVDKPSSTVYMKISSLTSEDSAVYYCAREHDYDYAMDYWGQGTSVTVSS
VL: DIVMTQAAPSVPVTPGESVSISCRSSKSLLHSNGNTYLYWFLQRPGQSPQLLIYRMSNLASGVPDRFSGSGSGTAFTLRISRVEAEDVGVYYCMQHLEYPFTFGSGTKLEIK
binds: [10] | [11] | [12] | [6] | [13] | [14] | [15] | [9] | [16] | [17]

B3: monoclonal anti-C7 antibody 73D1 (antibody, IgG2a, V domains shown)
VH: EVQLQQSGPELVKPGASVKMSCKASGYTFTDYNMHWVKQSHGKSLEWIGYINPNNGGPSYNQNFKGKATLTVNKSSSTAYMELRSLTSEDSAVYYCACGNYPDYWGQGTTLTVSS
VL: DIQMTQSPASLSASVGETVTITCRASGNIHNYLAWYQQKQGKSPQLLVYNAKTLADGVPSRFSGSGSGTQYSLKINSLQPEDFGSYYCQHFWSTPLTFGAGTKLELK
binds: [18] | [1] | [19] | [6] | [20] | [9] | [16]
